Laboratory results reported in patent publication US20120095032A1, “METHODS FOR TREATING LEUKEMIA AND MYELODYSPLASTIC SYNDROME, AND METHODS FOR IDENTIFYING AGENTS FOR TREATING SAME” (Sanford-Burnham Medical Research Institute, priority 2007, published 2012).
The structures given here were assigned with low confidence; some may be wrong.

By UniProt entry, the sequences of proteins in these tests, tags left out.
UniProt P35236, whole entry: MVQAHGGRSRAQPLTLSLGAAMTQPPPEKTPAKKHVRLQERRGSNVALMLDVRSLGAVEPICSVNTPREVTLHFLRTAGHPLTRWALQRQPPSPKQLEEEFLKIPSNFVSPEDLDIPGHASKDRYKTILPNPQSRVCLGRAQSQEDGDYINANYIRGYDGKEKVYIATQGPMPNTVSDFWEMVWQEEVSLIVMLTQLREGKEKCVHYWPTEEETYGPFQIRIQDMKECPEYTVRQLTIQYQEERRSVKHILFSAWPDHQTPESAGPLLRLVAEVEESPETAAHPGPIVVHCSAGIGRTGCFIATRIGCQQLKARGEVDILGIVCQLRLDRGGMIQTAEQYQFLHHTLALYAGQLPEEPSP

Legend:
HePTP [1] = biological target: T1, HePTP (Homo sapiens, UniProt P35236); assay: HePTP HTS primary screen (colorimetric pNPP / Biomol Green); type: biochemical; conditions: 20 μM compound
HePTP [2] = biological target: T1, HePTP; assay: HePTP dose-response confirmation screening; type: biochemical; conditions: Hill coefficient of the dose-response curve

SMILES: O=C(CCSCCC(=O)NCc1ccco1)NCc1ccco1
- % Inhib. at 20 μM (HePTP [1]): 100.6%
- n / nH (Hill coefficient) (HePTP [2]): 1.32
